The source of these data is article PMC5758537.

Results are given in words; binding and its absence hold for the method and conditions named. In cells and extracts the contact can be indirect. Some binding calls cover weakened binding; strength is not graded here.

The assay addresses T1, dopamine D2 receptor (mouse, endogenous) (mouse (endogenous in mouse striatum)), P61168.
T1 chain: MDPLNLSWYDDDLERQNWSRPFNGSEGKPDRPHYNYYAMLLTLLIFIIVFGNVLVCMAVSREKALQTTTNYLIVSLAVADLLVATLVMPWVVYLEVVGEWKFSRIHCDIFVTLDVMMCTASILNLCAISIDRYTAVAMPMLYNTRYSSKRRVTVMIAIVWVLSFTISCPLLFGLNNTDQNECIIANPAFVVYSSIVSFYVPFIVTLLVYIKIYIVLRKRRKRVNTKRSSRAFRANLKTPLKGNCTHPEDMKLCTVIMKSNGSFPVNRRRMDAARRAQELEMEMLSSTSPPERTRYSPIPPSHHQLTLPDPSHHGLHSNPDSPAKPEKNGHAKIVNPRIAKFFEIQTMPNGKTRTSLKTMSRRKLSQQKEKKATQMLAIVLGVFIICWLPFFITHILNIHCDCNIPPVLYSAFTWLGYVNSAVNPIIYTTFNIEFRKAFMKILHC
In words: proximity ligation; in situ PLA on coronal brain slices (rat 25 um, monkey 30 um; mouse striatum); anti-D1R and anti-D2R antibodies directly conjugated to PLUS and MINUS oligonucleotides, 60 ug/ml; two sets of antibodies; confocal microscopy. As to conditions: remark: other sources report otherwise.

B1: dopamine D1 receptor (mouse, endogenous), Q61616 1-446 (receptor)
chain: MAPNTSTMDETGLPVERDFSFRILTACFLSLLILSTLLGNTLVCAAVIRFRHLRSKVTNFFVISLAVSDLLVAVLVMPWKAVAEIAGFWPFGSFCNIWVAFDIMCSTASILNLCVISVDRYWAISSPFQYERKMTPKAAFILISVAWTLSVLISFIPVQLSWHKAKPTWPLDGNFTSLEDAEDDNCDTRLSRTYAISSSLISFYIPVAIMIVTYTSIYRIAQKQIRRISALERAAVHAKNCQTTTGNGNPVECSQSESSFKMSFKRETKVLKTLSVIMGVFVCCWLPFFISNCMVPFCGSEETQPFCIDSITFDVFVWFGWANSSLNPIIYAFNADFQKAFSTLLGCYRLCPTTNNAIETVSINNNGAVMFSSHHEPRGSISKDCNLVYLIPHAVGSSEDLKREEAGGIPKPLEKLSPALSVILDYDTDVSLEKIQPVTHSGQHST
In the case of B1, the binding result is listed as “binds”.
